The values that follow come from US20240108662A1, “ENGINEERED CELLS FUNCTIONALIZED WITH IMMUNE CHECKPOINT MOLECULES AND USES THEREOF” (The University of North Carolina at Chapel Hill, priority 2020, published 2024).

The nature of the data set: Proteomic analysis of native murine pancreata and decelled pancreatic ECM (Table 1). More on the design: species or system mouse. Particulars: for Pancreatic ECM: Mean of log2(intensities): abundance of the listed protein in decelled pancreatic ECM; for Native pancreas tissue: Mean of log2(intensities): abundance of the listed protein in native murine pancreas tissue.

B1: Q9ER41 (protein, UniProt Q9ER41 1-336, looked up)
chain: MRRIGAFGGSTALWALLAAHVAGAFEPVSVGIAIGAVSALTGYLSYTDFYCRFTECCHEERPLNTSALKLDLEEKLFGQHLATEVILKALTGFRNNKNSKKPLTLSLHGWAGTGKNFISQIVAENLYPKGLKSNFVHLFVSTLHFPHEQKIKVYQDQLQKWIRGNVSACGSSVFIFDEMDKLHPGIIDAIKPFLDYYEQVDGISYRRAIFIFLSNAGGDLITKTALDFWRAGRKREEIQLKDLEPVLSVGVFNNKHSGLWHSGLIDKNLIDYFIPFLPLEYKHVKMCVRAEMRARGAAVDEDVVTSVADEMTFFPKDEKIYSDKGCKTVQSRLDFH
modifications: full-length
For B1, the “Pancreatic ECM: Mean of log2(intensities)” value came out at 24.98 a.u and the “Native pancreas tissue: Mean of log2(intensities)” value is 21.67 a.u.

B2: O70585 (protein, UniProt O70585 1-659, looked up)
chain: MIEEGGNKRKTMAEKRQLFIEMRAQNFDVIRLSTYRTACKLRFVQKRCNLHLVDIWNMIEAFRDNGLNTLDHSTEISVSRLETVISSIYYQLNKRLPSTHQISVEQSISLLLNFMVAAYDSEGRGKLTVFSVKAMLATMCGGKMLDKLRYIFSQMSDSNGLMMFGKLDQFLKEALKLPTAVFEGPSFGYTEHAVRTCFPQQKKIMLNMFLDTMMADPPPQCLVWLPLMHRLAHVENVFHPVECSYCHCESMMGFRYRCQQCHNYQLCQNCFWRGHASGAHSNQHQMKEHSSWKSPAKKLSHAISKSLGCVPSREPPHPVFPEQPEKPLDLAHLVPPRPLTNMNDTVVSHMSSGVPTPTKRLQYSQDMPNLLADEHALIASYVARLQHCTRVLDSPSRLDEEHRLIARYAARLAAEAGNMTRPPTDASFNFDANKQQRQLIAELENKNREILQEIQRLRLEHEQASQPTPEKAQQNPMLLAELRLLRQRKDELEQRMSALQESRRELMVQLEGLMKLLKAQATGSPHTSPTHGGGRPMPMPVRSTSAGSTPTHGPQDSLSGVGGDVQEAFAQGTRRNLRNDLLVAADSITNTMSSLVKELHSGAEAEEQAGTEKTREGLPPRGTFLSVFLLHTWTKLAGCQTHSTSRERSQAYGKWGGTA
modifications: full-length
As to B2, the “Pancreatic ECM: Mean of log2(intensities)” value is 24.61 a.u and the “Native pancreas tissue: Mean of log2(intensities)” value came to 21.43 a.u.

B3: Q8BHS6 (protein, UniProt Q8BHS6 1-379, looked up)
chain: MGYARKVGWVTAGLVIGAGACYCIYRLTRGRKQNKEKMAEGGSGDVDDAGDCSGARYNDWSDDDDDSNESKSIVWYPPWARIGTEAGTRARARARARATRARRAVQKRASPNSDDTVLSPQELQKVLCLVEMSEKPYILEAALIALGNNAAYAFNRDIIRDLGGLPIVAKILNTRDPIVKEKALIVLNNLSVNAENQRRLKVYMNQVCDDTVTSRLNSSVQLAGLRLLTNMTVTNEYQHILANSISDFFRLFSAGNEETKLQVLKLLLNLAENPAMTRELLRAQVPSSLGSLFNKKEYKEVILKLLIIFENINDNFKWEENEPAQNHFSEGSLFFFLKEFQVCADKVLGIESRHDFQVRVKVGKFVAKLTERMFPKSQE
modifications: full-length
For the molecule B3, the “Pancreatic ECM: Mean of log2(intensities)” value was found to be 25.66 a.u and the “Native pancreas tissue: Mean of log2(intensities)” value amounted to 22.35 a.u.

B4: Q91V01 (protein, UniProt Q91V01 1-487, looked up)
chain: MASTADGDMGETLEQMRGLWPGVEDLSLNKLATSLGASEQALRLIFSIFLGYPLALFYRHYLFYKDSYLIHLFHTFTGLSIAYFNFGHQFYHSLLCVVLQFLILRLMGRTVTAVITTLCFQMAYLLAGYYYTATGDYDIKWTMPHCVLTLKLIGLCIDYYDGGKDGNSLTSEQQKYAIRGVPSLLEVAGFSYFYGAFLVGPQFSMNHYMKLVRGQLTDIPGKMPNSTIPALKRLSLGLVYLVGYTLLSPHITDDYLLTEDYDNRPFWFRCMYMLIWGKFVLYKYVTCWLVTEGVCILSGLGFNGFDENGTVRWDACANMKVWLFETTPRFNGTIASFNINTNAWVARYIFKRLKFLGNKELSQGLSLLFLALWHGLHSGYLICFQMEFLIVIVEKQVSSLIRDSPALSSLASITALQPFYYLVQQTIHWLFMGYSMTAFCLFTWDKWLKVYRSIYFLGHVFFLSLLFILPYIHKAMVPRKEKLKKRE
modifications: full-length
With B4, the “Pancreatic ECM: Mean of log2(intensities)” value worked out at 25.53 a.u and the “Native pancreas tissue: Mean of log2(intensities)” value is given as 22.24 a.u.
